Primary screen of a compound library

Chains of the proteins cited; added tags and fusions are not shown. Residues count along the entry.
UniProt P9WNZ1, whole entry: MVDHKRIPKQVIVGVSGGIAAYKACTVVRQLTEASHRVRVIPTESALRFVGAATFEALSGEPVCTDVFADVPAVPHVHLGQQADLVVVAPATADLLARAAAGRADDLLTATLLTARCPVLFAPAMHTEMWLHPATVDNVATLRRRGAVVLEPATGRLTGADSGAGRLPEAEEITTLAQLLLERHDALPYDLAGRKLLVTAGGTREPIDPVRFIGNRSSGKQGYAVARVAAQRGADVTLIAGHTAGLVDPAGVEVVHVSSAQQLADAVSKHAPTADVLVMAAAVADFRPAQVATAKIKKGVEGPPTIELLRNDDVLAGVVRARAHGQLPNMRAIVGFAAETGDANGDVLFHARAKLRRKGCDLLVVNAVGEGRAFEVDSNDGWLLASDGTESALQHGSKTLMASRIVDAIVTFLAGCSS
UniProt Q4DA54, 1-478: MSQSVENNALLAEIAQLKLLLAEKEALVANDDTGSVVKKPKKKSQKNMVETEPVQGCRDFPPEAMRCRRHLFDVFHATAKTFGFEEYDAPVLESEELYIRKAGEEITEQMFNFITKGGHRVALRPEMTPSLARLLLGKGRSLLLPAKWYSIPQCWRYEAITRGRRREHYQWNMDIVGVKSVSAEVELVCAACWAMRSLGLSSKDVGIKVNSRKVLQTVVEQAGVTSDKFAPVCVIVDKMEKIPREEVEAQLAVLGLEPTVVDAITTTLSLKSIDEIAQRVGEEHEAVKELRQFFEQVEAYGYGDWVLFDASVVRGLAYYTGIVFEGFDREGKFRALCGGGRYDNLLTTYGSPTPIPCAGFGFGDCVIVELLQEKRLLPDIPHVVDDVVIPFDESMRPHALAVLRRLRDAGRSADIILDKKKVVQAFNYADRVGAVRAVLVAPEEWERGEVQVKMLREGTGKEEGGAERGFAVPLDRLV

CoaBC: 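Coenzyme A biosynthesis protein CoaBC, Mycobacterium tuberculosis (UniProt P9WNZ1). Enzyme assay of CoaBC with a phosphate dye (Biomol Green) read at 650 nm. Tested at 30 µM. Higher reads as stronger inhibition, judged from the few compounds that gave an IC50. Most strong results did not repeat in a second test. About 67,000 compounds were tested under these conditions; 0.06% (about 40) showed 50% or more at least once.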
TcHisRS: 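Enzyme assay of histidyl-tRNA synthetase; the read-out is not stated. Target: Histidine-tRNA ligase, Trypanosoma cruzi CL Brener (UniProt Q4DA54). Tested at 30 µM. The record gives no direction; compounds that gave an IC50 in retests scored well above the rest, so higher reads as stronger inhibition. About 69,000 compounds were tested under these conditions; 0.045% (about 31) showed 50% or more at least once.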

Results are given as percent effect.
How 0% and 100% were set is not recorded. Most values in the screen are low, and negative values occur.
This is an unselected part of the compounds tested.
A dash means the value is not listed here; it may have been measured.

| SMILES | CoaBC | TcHisRS |
|---|---|---|
| `CC[C@H]1N(Cc2ccco2)CCC[C@]12CCC(=O)N2C` | 4.235% | 5.288% |
| `CCCc1nnc(N2CCCC(c3nnc(Cn4ccnc4)n3C)C2)s1` (stereo unspecified) | -0.4292% | 3.488% |
| `Cc1noc(C)c1CN1CCc2ncnc(-c3cnn(C)c3)c2CC1` | 1.728% | 10.58% |
| `COCCN(Cc1ccccc1)c1cc(C)ncn1` | 3.566% | 2.02% |
| `CC(C)Cc1cc(NC(=O)c2ccccc2F)n(C)n1` | -1.161% | 1.724% |
| `CN(C(=O)C1CCOCC1)[C@@H]1CCC[C@@H](N2CCCC2)[C@@H]1O` | -2.67% | 4.396% |
| `Cc1ncc(Cl)c(C(=O)N2CCCC(n3nc(C)nc3C)C2)n1` (stereo unspecified) | 4.604% | 4.706% |
| `O=C(C1CCOC1)N1CCC2(CCN(Cc3nccs3)CC2)CC1` (stereo unspecified) | 10.75% | 7.563% |
| `CCOCC1C[C@@H]2OCCN(C(=O)c3ccc[nH]3)[C@H]2C1` (stereo partly specified) | - | 3.797% |
| `CC(=O)c1cccc(OCCCC(=O)N(C)Cc2cnn(C)c2)c1` | -0.9615% | 6.897% |
| `C1CC(CO[C@@H]2CC[C@H]3[C@H]2OCCN3CC2CCOCC2)CCO1` | 6.274% | 1.84% |
| `Cn1nc(-c2ccc(F)cc2)cc1C(=O)NCCn1ccnc1` | 5.128% | 8.647% |
| `NC(=O)COc1ccc(CNCc2ccc(F)cc2F)cc1` | 5.485% | 1.626% |
| `CN(C)c1nccc(N(C)Cc2ncnn2C)n1` | 2.481% | 1.734% |

The last 2 entries again:

{"smiles": "NC(=O)COc1ccc(CNCc2ccc(F)cc2F)cc1", "CoaBC": 5.485, "TcHisRS": 1.626}
{"smiles": "CN(C)c1nccc(N(C)Cc2ncnn2C)n1", "CoaBC": 2.481, "TcHisRS": 1.734}

The values are deposited in ChEMBL (CHEMBL3988442, “University of Dundee, Small-Polar-MMV Screening Library” (2021)).